Data taken from ChEMBL document CHEMBL3988442, “University of Dundee, Small-Polar-MMV Screening Library” (2021).

The chains behind the UniProt entries cited, without tags or fusion partners.
UniProt E9BF75, entry or part of it: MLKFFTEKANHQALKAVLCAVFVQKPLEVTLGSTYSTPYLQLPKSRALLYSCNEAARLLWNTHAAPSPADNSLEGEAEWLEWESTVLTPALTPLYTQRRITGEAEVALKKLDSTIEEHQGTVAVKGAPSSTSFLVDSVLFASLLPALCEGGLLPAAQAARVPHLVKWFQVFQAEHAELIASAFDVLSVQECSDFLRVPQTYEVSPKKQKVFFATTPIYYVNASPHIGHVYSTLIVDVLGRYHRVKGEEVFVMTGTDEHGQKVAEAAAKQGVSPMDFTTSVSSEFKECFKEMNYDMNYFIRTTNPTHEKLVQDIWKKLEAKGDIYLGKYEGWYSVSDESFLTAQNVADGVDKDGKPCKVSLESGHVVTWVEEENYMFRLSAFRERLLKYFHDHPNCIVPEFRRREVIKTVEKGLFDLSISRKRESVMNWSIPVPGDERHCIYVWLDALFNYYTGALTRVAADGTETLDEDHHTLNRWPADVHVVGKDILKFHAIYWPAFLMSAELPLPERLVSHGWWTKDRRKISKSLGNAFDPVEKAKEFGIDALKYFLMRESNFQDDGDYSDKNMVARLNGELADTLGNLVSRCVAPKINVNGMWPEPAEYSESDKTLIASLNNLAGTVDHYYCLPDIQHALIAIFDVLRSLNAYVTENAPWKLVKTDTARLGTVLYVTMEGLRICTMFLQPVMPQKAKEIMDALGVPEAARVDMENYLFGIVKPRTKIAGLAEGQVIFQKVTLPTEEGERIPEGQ

A: 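Methionyl-tRNA synthetase (putative), Leishmania donovani (UniProt E9BF75). Primary screen of methionyl-tRNA synthetase; the read-out is not stated. The test concentration is not given. Values are per cent inhibition. About 68,000 compounds were tested under these conditions; 0.035% (about 24) showed 50% or more at least once.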
B: 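Assay on Mycobacterium tuberculosis, filed only as a heat shock assay from Cornell; the read-out is not stated. The concentration is filed as 10 mM, unlikely as a test dose, so the dose is not known. Direction is inferred from retests: higher values go with stronger inhibition. About 69,000 compounds were tested under these conditions; 1.4% (about 930) showed 50% or more at least once.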

Results are percentages, as filed. The record does not define 0% and 100%; most values in the screen are far below 50% and negative numbers occur (in some assays of this library far below -100). The compounds are a random part of those screened.

- CC(C)c1nn(C)c(Cl)c1CNCc1ccc(N(C)C)nc1.Cl | B: -26.55%
- Cc1ccc(CN2CCn3c(C(=O)N(C)C)cnc3C2)s1 | A: 14.98%
- [H][C@@]12CN(C(=O)c3ccsc3)C[C@]1([H])C(=O)N(CC)C2 | B: 7.115%
- CN(CC1(CO)CCCC1)[C@@H]1c2ccccc2C2(CCNCC2)[C@H]1O | A: 0%; B: -3.404%
- Cc1ccc(CC(=O)N2CC[C@@H]3NC(=O)CC[C@@H]32)cc1 | A: 4.498%
- CCC(NC(=O)C1CCN(S(C)(=O)=O)CC1)c1ccc(C)cc1C (stereo not given) | A: 11.17%; B: 6.208%
- CC(O)CN1CCC(CN(C)Cc2cc(F)cc3cccnc23)CC1 (stereo not given) | A: 9.589%; B: -42.88%
- CC(C)N(C)S(=O)(=O)c1ccc2c(c1)CCN(C(=O)c1cccnn1)C2 | A: 18.58%; B: -12.09%
- CCN1C(=O)CC(c2ccccc2)C12CCN(CC1CCOCC1)CC2 (stereo not given) | A: 11.2%
- O=C(COC1CCCC1)NCCc1noc(-c2ccccn2)n1 | A: 12.01%; B: 3.225%
- [H][C@@]12C[C@H](c3noc(C)n3)O[C@@]1([H])CCN(C(=O)c1ccoc1C)C2 | B: -21.24%
- Cc1ccc(N2CC[C@H]3O[C@@H](C(=O)N4CCCO4)CC[C@H]32)nn1 | A: 7.104%
- Cc1nc(C(C)C)sc1C(=O)N(C)Cc1cnn(C)c1 | A: -6.983%; B: -15.9%
- N#Cc1ccc(N2CCCC3(CCN(c4cccnc4)CC3)C2)cc1.O=C(O)C(F)(F)F | B: -6.163%
- CNS(=O)(=O)CCNCC1(O)CCCN(CCC2CCCCC2)C1=O (stereo not given) | A: 13.38%; B: 7.178%
- CCn1cc(CN(C)S(=O)(=O)c2ccc(NC(C)=O)cc2)cn1 | A: 6.224%; B: -9.768%
- CC(C)c1noc(CN2CCCC2c2noc(C(C)C)n2)n1 (stereo not given) | A: 8.832%; B: -5.524%
- CS(=O)(=O)NCC(Cc1cccc(F)c1)N1CCNC1=O (stereo not given) | A: 16.38%; B: 12.62%
- CCc1nc(-c2cncnc2C2CCNC2)no1 (stereo not given) | A: 4.062%; B: -15.3%
- O=C(NC1CC1)[C@H]1C[C@H]2OCC[C@H]2N(Cc2ccc3ccccc3n2)C1 | A: 16.42%
- CC(C)Oc1ccc(C(O)CNCc2ccccc2C(F)(F)F)cc1 (stereo not given) | A: 15.04%; B: -26.29%
- Cc1ccc(CN2CCc3nnc(CN4CCCC4=O)n3CC2)o1 | A: 9.524%
- O=C(O)C(F)(F)F.O=C(O)C(F)(F)F.[H][C@@]12CCN(Cc3nc(C)cs3)[C@]1([H])CC[C@@H](C(=O)Nc1cccnc1)O2 | B: -18.37%
- c1c2c(nn1CC1CCOCC1)C(CNC1CCOCC1)OCC2 (stereo not given) | A: -19.8%

For reference, 2 entries once more:

Compound,A,B
CC(C)Oc1ccc(C(O)CNCc2ccccc2C(F)(F)F)cc1 (stereo not given),15.04,-26.29
CS(=O)(=O)NCC(Cc1cccc(F)c1)N1CCNC1=O (stereo not given),16.38,12.62